Reference: PMC12170886, “CHD8 interacts with BCL11A to induce oncogenic transcription in triple negative breast cancer” (The EMBO Journal, 2025)
These are yes or no findings as the source states them, for the method shown. In cells and extracts the contact can be indirect. These calls come from enrichment with a bait or labelling near it, and not all partners need be listed. For some of these results: No binding means not detected with the bait.

Amino acid sequences for entries named in this document (tags omitted).
UniProt Q9QYE3: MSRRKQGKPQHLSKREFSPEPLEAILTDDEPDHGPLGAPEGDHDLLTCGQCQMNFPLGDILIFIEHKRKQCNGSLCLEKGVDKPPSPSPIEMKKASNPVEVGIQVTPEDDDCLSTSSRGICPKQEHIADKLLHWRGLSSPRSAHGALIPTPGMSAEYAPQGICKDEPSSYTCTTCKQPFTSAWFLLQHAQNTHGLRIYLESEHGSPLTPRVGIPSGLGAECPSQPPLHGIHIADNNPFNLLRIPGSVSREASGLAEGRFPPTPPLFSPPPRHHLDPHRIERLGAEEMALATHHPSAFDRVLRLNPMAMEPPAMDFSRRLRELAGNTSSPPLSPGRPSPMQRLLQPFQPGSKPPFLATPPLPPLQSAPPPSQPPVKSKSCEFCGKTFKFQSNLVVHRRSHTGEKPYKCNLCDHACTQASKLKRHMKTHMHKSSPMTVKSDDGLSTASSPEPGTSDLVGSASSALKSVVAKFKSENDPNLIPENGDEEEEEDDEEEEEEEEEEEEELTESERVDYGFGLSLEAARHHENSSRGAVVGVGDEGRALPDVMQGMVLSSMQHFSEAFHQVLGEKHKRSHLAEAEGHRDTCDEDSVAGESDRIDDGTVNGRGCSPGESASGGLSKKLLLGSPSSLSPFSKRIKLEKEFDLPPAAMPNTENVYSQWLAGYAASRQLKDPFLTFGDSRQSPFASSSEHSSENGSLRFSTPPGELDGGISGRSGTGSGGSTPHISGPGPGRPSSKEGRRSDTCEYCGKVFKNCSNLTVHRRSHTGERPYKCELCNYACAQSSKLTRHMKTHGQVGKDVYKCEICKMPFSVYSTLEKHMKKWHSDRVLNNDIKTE
UniProt Q9HCK8: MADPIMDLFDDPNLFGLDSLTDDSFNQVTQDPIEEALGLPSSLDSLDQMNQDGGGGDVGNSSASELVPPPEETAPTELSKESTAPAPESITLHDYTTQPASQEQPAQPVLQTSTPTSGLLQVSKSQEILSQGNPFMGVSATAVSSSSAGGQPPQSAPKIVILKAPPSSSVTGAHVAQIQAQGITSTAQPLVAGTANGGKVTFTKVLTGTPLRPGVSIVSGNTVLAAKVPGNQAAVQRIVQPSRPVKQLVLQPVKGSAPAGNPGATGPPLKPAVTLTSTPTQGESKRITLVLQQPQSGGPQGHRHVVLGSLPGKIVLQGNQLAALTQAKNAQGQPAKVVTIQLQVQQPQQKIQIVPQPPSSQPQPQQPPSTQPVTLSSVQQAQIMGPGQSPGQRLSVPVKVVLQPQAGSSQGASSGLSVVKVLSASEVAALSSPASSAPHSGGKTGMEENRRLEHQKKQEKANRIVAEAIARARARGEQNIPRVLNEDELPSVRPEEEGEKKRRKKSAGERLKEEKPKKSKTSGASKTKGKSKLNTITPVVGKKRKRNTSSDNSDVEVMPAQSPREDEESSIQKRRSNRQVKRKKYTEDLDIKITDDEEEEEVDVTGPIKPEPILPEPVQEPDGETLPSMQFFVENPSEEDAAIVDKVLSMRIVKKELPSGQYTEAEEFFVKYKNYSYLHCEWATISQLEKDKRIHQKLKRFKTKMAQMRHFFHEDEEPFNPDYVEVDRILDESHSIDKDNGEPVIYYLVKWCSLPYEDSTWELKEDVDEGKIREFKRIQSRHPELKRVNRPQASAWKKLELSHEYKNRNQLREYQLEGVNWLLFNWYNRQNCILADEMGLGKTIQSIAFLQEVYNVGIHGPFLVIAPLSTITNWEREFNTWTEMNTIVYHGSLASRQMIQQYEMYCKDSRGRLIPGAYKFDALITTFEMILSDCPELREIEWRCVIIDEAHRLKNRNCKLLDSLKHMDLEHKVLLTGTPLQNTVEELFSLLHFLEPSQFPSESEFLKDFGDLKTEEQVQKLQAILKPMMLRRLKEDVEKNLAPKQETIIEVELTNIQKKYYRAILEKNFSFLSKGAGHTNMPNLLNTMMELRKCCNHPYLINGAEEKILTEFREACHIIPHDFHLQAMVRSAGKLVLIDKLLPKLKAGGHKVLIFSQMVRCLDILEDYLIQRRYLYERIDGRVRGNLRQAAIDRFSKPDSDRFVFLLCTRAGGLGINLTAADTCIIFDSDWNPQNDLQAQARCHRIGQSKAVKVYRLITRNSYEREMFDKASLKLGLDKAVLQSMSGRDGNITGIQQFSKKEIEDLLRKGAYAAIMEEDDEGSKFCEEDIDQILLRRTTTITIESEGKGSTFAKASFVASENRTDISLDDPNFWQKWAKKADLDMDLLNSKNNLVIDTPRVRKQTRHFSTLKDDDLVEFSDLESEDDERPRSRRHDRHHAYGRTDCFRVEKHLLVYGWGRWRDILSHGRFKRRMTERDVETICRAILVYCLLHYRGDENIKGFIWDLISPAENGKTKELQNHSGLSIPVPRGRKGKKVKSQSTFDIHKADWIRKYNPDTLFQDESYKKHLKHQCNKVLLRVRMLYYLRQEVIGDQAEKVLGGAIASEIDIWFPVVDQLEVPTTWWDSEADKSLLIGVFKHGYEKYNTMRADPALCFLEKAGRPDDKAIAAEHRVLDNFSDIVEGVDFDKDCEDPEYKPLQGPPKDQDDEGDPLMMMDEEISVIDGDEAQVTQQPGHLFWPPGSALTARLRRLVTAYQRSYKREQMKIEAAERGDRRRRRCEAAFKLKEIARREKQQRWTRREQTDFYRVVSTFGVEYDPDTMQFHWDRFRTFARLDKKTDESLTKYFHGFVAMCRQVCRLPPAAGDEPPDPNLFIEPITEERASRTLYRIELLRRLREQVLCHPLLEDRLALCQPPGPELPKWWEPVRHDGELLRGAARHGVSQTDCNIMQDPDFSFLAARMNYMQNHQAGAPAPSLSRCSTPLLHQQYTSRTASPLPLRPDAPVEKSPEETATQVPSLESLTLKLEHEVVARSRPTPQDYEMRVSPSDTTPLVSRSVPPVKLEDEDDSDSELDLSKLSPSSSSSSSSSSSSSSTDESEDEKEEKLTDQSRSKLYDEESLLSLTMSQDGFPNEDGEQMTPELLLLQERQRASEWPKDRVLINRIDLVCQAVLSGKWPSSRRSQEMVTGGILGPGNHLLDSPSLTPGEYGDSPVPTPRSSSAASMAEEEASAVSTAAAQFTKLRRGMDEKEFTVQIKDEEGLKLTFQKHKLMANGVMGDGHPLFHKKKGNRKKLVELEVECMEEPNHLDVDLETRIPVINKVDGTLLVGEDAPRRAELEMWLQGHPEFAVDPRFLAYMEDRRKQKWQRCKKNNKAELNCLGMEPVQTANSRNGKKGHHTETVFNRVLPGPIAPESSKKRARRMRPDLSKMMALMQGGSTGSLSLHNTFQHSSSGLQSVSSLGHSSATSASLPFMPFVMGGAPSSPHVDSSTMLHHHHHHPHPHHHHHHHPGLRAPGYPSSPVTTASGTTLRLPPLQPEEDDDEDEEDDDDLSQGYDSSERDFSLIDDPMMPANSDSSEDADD
UniProt Q09XV5: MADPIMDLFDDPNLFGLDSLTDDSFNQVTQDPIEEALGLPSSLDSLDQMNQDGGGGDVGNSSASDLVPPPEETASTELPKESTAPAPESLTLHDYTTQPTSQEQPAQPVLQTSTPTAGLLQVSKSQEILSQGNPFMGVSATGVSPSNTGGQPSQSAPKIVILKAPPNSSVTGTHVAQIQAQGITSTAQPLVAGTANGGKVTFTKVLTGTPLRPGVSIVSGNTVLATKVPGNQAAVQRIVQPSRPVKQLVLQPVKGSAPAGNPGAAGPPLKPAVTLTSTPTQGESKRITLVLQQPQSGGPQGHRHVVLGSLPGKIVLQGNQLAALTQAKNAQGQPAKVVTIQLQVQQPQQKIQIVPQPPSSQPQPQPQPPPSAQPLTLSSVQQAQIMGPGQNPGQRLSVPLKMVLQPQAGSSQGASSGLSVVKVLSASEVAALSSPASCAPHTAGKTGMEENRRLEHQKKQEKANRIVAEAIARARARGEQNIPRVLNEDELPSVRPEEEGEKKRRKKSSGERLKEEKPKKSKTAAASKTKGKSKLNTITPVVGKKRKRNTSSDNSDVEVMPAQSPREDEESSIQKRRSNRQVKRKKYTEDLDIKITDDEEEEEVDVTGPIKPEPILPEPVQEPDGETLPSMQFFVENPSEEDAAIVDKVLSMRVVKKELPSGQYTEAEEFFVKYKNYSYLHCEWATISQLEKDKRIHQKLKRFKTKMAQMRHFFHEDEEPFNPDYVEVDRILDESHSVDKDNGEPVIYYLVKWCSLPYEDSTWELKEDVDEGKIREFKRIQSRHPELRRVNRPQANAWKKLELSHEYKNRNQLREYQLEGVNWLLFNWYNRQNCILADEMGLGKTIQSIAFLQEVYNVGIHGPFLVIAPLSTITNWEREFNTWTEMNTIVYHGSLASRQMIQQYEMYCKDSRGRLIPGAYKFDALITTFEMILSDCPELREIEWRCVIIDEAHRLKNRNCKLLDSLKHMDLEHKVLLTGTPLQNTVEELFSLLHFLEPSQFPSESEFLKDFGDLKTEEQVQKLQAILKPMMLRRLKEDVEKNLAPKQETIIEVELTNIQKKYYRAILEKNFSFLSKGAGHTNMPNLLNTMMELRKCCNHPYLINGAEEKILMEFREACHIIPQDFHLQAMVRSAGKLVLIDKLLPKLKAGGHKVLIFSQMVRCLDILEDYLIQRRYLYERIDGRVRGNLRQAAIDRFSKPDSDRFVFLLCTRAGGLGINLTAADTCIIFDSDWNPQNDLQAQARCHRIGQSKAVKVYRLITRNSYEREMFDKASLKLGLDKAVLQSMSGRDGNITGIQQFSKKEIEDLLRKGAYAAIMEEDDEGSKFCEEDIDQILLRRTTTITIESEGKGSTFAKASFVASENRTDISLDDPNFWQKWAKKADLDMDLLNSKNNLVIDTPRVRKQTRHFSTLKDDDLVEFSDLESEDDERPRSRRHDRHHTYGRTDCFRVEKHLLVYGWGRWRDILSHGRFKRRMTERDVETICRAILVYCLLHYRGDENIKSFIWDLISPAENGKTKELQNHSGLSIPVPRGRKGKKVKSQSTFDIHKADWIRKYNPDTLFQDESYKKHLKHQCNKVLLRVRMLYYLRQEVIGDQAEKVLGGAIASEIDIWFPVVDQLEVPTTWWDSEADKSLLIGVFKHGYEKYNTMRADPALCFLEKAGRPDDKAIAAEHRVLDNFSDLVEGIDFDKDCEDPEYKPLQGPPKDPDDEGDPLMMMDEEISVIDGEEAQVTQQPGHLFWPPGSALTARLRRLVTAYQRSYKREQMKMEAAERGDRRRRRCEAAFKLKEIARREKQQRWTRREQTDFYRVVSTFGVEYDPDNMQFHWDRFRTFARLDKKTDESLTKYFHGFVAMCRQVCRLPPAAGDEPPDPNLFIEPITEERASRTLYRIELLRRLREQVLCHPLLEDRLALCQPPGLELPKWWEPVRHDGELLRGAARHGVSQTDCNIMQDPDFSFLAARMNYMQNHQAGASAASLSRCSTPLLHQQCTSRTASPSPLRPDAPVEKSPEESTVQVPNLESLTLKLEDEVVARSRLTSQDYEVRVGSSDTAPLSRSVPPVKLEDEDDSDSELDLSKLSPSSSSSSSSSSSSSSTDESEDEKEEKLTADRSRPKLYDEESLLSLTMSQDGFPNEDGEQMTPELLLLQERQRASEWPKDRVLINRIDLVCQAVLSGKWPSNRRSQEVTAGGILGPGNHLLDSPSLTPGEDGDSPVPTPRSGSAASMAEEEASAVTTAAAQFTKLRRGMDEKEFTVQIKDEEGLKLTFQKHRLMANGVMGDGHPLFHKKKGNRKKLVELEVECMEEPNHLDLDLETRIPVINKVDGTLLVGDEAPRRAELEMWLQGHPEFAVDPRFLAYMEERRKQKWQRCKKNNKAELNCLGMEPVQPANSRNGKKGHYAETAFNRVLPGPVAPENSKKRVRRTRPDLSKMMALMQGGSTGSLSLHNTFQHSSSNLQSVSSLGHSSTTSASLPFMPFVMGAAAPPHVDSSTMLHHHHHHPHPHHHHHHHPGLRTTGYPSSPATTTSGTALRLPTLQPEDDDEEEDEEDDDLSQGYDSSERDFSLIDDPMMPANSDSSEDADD

Columns and labels:
[1] = target: BCL11A (endogenous, human TNBC samples) (human (endogenous in MDA-MB-231 and patient-derived xenografts)) (UniProt Q9H165); experiment: affinity purification with mass spectrometry; RIME: TNBC samples (MDA-MB-231, 4T1, PDX) cross-linked with 1% formaldehyde, nuclear fraction sonicated, IP with anti-BCL11A (Bethyl A300-382A) on Protein G magnetic beads overnight at 4 °C, RIPA washes, on-bead trypsin digest, LC-MS/MS; IgG control
[2] = target: Bcl11a (endogenous, mouse) (mouse (endogenous in 4T1, primary B-cells, brain, spleen)) (UniProt Q9QYE3); experiment: condition: only in wild-type female mouse brain tissue; affinity purification with mass spectrometry; BCL11A RIME on wild-type female mouse brain tissue
[3] = target: Bcl11a (endogenous, mouse) (mouse (endogenous in 4T1, primary B-cells, brain, spleen)) (UniProt Q9QYE3); experiment: affinity purification with mass spectrometry; RIME: TNBC samples (MDA-MB-231, 4T1, PDX) cross-linked with 1% formaldehyde, nuclear fraction sonicated, IP with anti-BCL11A (Bethyl A300-382A) on Protein G magnetic beads overnight at 4 °C, RIPA washes, on-bead trypsin digest, LC-MS/MS; IgG control
[4] = target: Bcl11a (endogenous, mouse) (mouse (endogenous in 4T1, primary B-cells, brain, spleen)) (UniProt Q9QYE3); experiment: affinity purification with mass spectrometry; RIME as for the TNBC samples, on primary B-cells of C57BL/6 mice; IP with anti-BCL11A

Row | Substance | binding [1] | binding [2] | binding [3] | binding [4]
1 | CHD8 (endogenous, human TNBC samples) (from UniProt Q9HCK8 1-2581) | binds |  |  | 
2 | Chd8 (endogenous, mouse) (from UniProt Q09XV5 1-2582) |  | no binding | binds | no binding (only in primary mouse B-cells)
